Test results published in article PMC6449406, “Classification of the human phox homology (PX) domains based on their phosphoinositide binding specificities” (Nature Communications, 2019).
No constants are given. Whether binding was seen depends on the method and setting. Some entries that bind do so weakly or less than the wild type.

T1: SNX32 PX domain (human) (UniProt Q86XE0)
T1 sequence: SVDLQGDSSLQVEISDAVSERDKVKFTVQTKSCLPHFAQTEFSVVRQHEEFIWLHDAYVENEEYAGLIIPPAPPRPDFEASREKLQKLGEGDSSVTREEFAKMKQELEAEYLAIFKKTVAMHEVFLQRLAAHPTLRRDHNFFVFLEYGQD


Key:
SNX32 PX domain (human) = biological target: T1, SNX32 PX domain (human); test: crystal structure; SNX32 PX domain (12 mg/ml) mixed with the IncE peptide at a 1:2 molar ratio of protein to peptide, 1 h on ice; crystals in 20% PEG 8000, 0.1 M TRIS (pH 8.0), 0.01 M MgCl2, 20 °C; both purified
SNX15 PX domain (human) = SNX15 PX domain (human) (UniProt Q9NRS6); test: crystal structure; SNX15 PX domain alone, two crystal forms (form 1: 100 mM Tris pH 8.5, 200 mM LiSO4, 24% PEG4000, 10% glycerol; form 2: 4 M NaCl, 0.1 Tris pH 8.5, 30 mM IP6), 20 °C; both purified

| Binder | binding (SNX32 PX domain (human)) | binding (SNX15 PX domain (human)) |
| --- | --- | --- |
| PANGPAVQFFKGKNGSADQVILVTQ [IncE peptide] | binds |  |
| SNX15 PX domain (domain or fragment, human, source: E. coli BL21(DE3)/pLysS, purified (glutathione-Sepharose, thrombin cleavage, size exclusion chromatography); not shown: GST, N-terminal, cleaved) MSRQAKDDFLRHYTVSDPRTHPKGYTEYKVTAQFISKKDPEDVKEVVVWKRYSDFRKLHGDLAYTHRNLFRRLEEFPAFPRAQVFGRFEASVIEERRKGAEDLLRFTVHIPALNNSPQLKEFFRGG |  | binds |
